In PMC3192838 one finds binding data, which are given here for one molecule.

Results are given in words; binding and its absence hold for the method and conditions named. Binding seen in cells or lysates may run through a third protein.

Assay [1] deals with T1, PKR, dsRNA-dependent eIF2α kinase (human (endogenous in Huh7.25.CD81)), P19525.
T1 chain: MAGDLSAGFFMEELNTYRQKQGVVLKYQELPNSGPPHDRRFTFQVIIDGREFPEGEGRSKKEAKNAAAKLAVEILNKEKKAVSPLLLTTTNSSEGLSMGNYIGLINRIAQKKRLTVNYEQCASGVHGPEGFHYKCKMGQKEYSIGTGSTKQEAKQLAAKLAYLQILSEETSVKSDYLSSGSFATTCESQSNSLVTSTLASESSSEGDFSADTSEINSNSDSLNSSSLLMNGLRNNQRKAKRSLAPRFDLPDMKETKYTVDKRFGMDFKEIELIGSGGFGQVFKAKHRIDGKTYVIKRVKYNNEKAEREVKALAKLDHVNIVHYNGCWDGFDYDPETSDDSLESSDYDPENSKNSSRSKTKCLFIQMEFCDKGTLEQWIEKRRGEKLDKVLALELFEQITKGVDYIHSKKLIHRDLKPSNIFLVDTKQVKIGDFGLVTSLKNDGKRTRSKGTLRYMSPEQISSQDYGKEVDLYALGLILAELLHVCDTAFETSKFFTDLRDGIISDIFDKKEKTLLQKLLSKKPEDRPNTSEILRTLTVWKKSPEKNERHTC
The assay is described as follows: co-IP; immunoprecipitation of endogenous PKR from extracts (3.5 mg) of JFH1-infected Huh7.25.CD81 cells at 1, 2, 4 and 6 hrs post-infection, with the RNAse inhibitor RNAsin (1000 U/ml) at all steps; immunoblot (Odyssey). To be noted: remark: other sources report otherwise. (In western blotting, separated proteins are transferred to a membrane and probed.)

In assay [2] the target is T1, PKR, dsRNA-dependent eIF2α kinase …. Briefly: co-IP; immunoprecipitation of endogenous PKR from extracts (3.5 mg) of Huh7.25.CD81 cells infected with JFH1 (m.o.i = 0.2), alone or in presence of C16; lysis buffer 50 mM TRIS-HCl pH 7.5, 140 mM NaCl, 5% glycerol, 1% CHAPS; antibody at 4°C overnight, A/G-agarose beads; immunoblot (Odyssey). To be noted: remark: other sources report otherwise.

B1: RIG-I, CARD-containing DexD/H RNA helicase, O95786-1 1-925 (protein)
chain: MTTEQRRSLQAFQDYIRKTLDPTYILSYMAPWFREEEVQYIQAEKNNKGPMEAATLFLKFLLELQEEGWFRGFLDALDHAGYSGLYEAIESWDFKKIEKLEEYRLLLKRLQPEFKTRIIPTDIISDLSECLINQECEEILQICSTKGMMAGAEKLVECLLRSDKENWPKTLKLALEKERNKFSELWIVEKGIKDVETEDLEDKMETSDIQIFYQEDPECQNLSENSCPPSEVSDTNLYSPFKPRNYQLELALPAMKGKNTIICAPTGCGKTFVSLLICEHHLKKFPQGQKGKVVFFANQIPVYEQQKSVFSKYFERHGYRVTGISGATAENVPVEQIVENNDIIILTPQILVNNLKKGTIPSLSIFTLMIFDECHNTSKQHPYNMIMFNYLDQKLGGSSGPLPQVIGLTASVGVGDAKNTDEALDYICKLCASLDASVIATVKHNLEELEQVVYKPQKFFRKVESRISDKFKYIIAQLMRDTESLAKRICKDLENLSQIQNREFGTQKYEQWIVTVQKACMVFQMPDKDEESRICKALFLYTSHLRKYNDALIISEHARMKDALDYLKDFFSNVRAAGFDEIEQDLTQRFEEKLQELESVSRDPSNENPKLEDLCFILQEEYHLNPETITILFVKTRALVDALKNWIEGNPKLSFLKPGILTGRGKTNQNTGMTLPAQKCILDAFKASGDHNILIATSVADEGIDIAQCNLVILYEYVGNVIKMIQTRGRGRARGSKCFLLTSNAGVIEKEQINMYKEKMMNDSILRLQTWDEAVFREKILHIQTHEKFIRDSQEKPKPVPDKENKKLLCRKCKALACYTADVRVIEECHYTVLGDAFKECFVSRPHPKPKQFSSFEKRAKIFCARQNCSHDWGIHVKYKTFEIPVIKIESFVVEDIATGVQTLYSKWKDFHFEKIPFDPAEMSK
Consider B1, for which the binding result in assay [1] and in assay [2] was “no binding” in each case.
